Experimental data from paper PMC6470953, “Symmetrical Modification of Minimized Dermaseptins to Extend the Spectrum of Antimicrobials with Endotoxin Neutralization Potency” (International Journal of Molecular Sciences, 2019).

Tested on: bacteria over hRBCs
Experiment: Therapeutic index (MHC5/GM)
Details: MHC5 >256 μM counted as 512 μM

Substance | Therapeutic index
WFKAAAKAAAKFW-NH2 [WF] | 23.5
WVKAAAKAAAKVW-NH2 [WV] | 3.4
WIKAAAKAAAKIW-NH2 [WI] | 14.8
WWKAAAKAAAKWW-NH2 [WW] | 64.0

Where no end group is shown, it is not given here.
